Results are given in words; binding and its absence hold for the method and conditions named. In cells and extracts the contact can be indirect. These calls come from enrichment with a bait or labelling near it, and not all partners need be listed.

By UniProt entry, the sequences of proteins in these tests, tags left out. Residues count along the entry.
UniProt Q86UX7, residues 2-667: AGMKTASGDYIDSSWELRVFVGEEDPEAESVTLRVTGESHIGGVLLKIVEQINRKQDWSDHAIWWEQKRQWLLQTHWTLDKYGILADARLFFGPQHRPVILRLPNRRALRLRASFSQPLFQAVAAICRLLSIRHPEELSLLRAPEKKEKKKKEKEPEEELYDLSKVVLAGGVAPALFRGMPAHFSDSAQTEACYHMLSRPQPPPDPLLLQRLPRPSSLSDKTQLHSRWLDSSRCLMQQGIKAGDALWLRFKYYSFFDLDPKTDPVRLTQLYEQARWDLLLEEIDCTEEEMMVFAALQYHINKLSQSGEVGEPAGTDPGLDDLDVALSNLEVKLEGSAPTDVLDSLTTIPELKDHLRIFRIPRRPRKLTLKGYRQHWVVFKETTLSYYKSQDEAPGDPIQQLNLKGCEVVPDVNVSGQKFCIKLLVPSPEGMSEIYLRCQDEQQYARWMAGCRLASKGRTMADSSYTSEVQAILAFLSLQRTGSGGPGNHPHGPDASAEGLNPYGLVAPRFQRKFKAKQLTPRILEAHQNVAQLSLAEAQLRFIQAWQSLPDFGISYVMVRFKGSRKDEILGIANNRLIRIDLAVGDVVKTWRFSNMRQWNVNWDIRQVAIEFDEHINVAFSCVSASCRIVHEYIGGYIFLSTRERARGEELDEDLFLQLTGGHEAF
UniProt Q9Y490: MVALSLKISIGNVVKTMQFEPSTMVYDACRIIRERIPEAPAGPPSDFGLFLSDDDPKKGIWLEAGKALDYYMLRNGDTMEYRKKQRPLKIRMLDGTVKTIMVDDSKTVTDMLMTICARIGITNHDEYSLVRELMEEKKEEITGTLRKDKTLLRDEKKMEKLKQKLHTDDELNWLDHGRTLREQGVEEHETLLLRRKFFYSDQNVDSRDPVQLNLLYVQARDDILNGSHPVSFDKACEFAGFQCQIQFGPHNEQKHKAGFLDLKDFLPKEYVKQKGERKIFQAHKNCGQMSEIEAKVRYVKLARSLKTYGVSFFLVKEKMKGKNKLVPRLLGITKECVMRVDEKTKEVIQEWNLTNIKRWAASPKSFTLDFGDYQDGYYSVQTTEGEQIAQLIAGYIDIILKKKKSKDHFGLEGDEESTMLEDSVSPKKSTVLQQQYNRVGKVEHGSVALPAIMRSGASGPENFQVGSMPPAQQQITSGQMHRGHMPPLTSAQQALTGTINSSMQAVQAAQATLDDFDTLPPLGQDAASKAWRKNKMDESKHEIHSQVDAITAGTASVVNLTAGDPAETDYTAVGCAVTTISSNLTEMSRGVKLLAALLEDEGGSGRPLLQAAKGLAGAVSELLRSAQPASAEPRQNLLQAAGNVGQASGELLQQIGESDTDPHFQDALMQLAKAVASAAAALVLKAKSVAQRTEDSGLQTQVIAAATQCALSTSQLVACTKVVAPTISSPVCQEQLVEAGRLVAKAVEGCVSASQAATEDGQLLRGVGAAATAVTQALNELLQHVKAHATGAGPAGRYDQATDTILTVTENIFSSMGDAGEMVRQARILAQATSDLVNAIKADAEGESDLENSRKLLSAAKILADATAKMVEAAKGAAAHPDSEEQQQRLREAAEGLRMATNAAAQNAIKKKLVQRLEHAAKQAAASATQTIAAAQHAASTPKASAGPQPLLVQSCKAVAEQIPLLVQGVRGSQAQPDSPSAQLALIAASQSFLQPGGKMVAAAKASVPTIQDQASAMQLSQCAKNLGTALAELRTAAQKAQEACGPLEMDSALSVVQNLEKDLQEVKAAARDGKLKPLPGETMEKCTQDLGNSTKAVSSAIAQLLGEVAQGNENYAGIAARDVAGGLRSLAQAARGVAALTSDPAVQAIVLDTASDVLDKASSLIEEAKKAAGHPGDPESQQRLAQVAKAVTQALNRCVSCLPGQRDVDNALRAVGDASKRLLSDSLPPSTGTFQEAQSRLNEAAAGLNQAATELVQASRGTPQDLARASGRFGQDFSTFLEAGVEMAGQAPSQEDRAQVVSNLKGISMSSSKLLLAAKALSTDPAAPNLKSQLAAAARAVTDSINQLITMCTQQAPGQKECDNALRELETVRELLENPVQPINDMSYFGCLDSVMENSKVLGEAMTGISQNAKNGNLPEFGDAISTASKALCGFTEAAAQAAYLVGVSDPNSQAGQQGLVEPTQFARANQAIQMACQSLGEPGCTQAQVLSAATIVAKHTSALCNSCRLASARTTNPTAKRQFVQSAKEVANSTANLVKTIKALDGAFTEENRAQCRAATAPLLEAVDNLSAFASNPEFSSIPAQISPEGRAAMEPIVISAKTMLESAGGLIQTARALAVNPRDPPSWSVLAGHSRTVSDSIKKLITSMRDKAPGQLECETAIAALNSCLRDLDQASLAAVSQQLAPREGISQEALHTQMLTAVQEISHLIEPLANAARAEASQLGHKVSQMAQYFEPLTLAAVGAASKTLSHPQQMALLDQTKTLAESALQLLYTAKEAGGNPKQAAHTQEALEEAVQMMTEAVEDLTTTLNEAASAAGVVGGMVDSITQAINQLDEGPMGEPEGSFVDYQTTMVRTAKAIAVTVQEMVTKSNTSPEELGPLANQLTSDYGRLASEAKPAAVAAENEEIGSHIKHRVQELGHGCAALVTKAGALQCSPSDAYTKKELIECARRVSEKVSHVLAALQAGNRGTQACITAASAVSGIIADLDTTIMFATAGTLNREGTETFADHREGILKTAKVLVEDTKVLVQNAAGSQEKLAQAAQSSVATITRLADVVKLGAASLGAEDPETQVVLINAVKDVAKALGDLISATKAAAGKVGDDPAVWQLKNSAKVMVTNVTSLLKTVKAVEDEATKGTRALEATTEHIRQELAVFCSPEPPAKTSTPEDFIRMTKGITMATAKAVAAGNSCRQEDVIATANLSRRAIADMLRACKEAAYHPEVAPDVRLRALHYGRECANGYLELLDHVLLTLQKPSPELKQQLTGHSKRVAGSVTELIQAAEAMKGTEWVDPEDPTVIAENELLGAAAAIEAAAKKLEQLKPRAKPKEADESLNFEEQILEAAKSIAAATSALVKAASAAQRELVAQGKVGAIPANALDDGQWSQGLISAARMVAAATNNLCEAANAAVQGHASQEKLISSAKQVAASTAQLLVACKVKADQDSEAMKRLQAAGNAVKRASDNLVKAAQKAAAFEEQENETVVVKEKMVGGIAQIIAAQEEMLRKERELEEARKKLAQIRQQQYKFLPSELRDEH
UniProt Q13418: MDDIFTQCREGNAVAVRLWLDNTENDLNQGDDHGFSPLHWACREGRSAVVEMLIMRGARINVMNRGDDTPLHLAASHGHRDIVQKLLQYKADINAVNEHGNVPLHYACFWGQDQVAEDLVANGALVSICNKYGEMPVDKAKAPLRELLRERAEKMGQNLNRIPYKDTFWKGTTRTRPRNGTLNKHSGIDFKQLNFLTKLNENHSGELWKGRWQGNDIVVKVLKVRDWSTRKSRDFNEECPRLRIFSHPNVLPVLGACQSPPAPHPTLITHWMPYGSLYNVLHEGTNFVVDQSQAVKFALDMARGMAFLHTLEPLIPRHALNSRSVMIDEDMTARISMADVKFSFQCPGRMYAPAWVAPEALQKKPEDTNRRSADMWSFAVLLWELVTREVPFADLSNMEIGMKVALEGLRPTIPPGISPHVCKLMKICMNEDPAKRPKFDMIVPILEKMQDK

The target of this test is HA-BirA-tagged KINDLIN3 protein (human) (UniProt Q86UX7). As to the kind of experiment: proximity labelling; BioID: NB4 BirA-KINDLIN3 neutrophils at steady state, 50 uM biotin overnight, lysis in 0.5% NP40 buffer, streptavidin Dynabeads, LC-MS/MS (label-free quantification); compared with NB4 WT with biotin and BirA-KINDLIN3 without biotin.

On to TALIN1 (from UniProt Q9Y490 1-2541), for which the binding result is recorded as “binds”. Under “integrin-linked kinase (ILK) (from UniProt Q13418 1-452)” stands “binds”.
